Measured values published in PubChem BioAssay AID540256 (National Center for Advancing Translational Sciences (NCATS), 2011).
The campaign covered roughly 300,000 compounds. About 3,700 (1.2%) were called active. This list was built around the results that the source calls inconclusive (neither active nor inactive); the mix of calls is not that of the screen. Calls follow the shape of the full dose curve; tested in HEK293 cells. A potency beside an inconclusive call is a rough fit, not a confirmed value.

Assay: qHTS for Inhibitors of binding or entry into cells for Lassa Virus; also: nearly all actives have a fitted effect of over 50% in size
Conditions: Lassa virus pseudotype entry inhibition, cell reporter; activity change, negative = inhibition: at 37.9 µM (top of the series) unless noted
% is scaled to controls: 0 for no effect and ±100 for the full control effect; potency is read from the fitted curve at half-maximal effect.

| Compound | activity change, negative = inhibition | Potency |
| --- | --- | --- |
| COc1cc2c(cc1OC)CN(C(=O)CSc1ccccc1C)CC2 | inactive: 2.49% |  |
| CC1CC(C)CN(C(=O)COC(=O)/C=C/c2ccco2)C1 (stereo not given) | inactive: 11% |  |
| COC(=O)c1ccc(CNC(=O)CSc2nc3sc(C)c(C)c3c(=O)n2C)o1 |  | inconclusive: 32.6 µM [inhibitor, single point] |
| O=C(CSc1nc2c(sc3ccccc32)c(=O)n1Cc1ccco1)NCC1CCCO1 (stereo not given) | inactive: 7.68% |  |
| CC(C)CCn1c(Sc2nc3ccccc3o2)nc2c1c(=O)[nH]c(=O)n2C | inactive: -19% |  |
| CNC(=O)c1nn(-c2ccc(C)cc2)ccc1=O | inactive: 0.315% |  |
| CC(C)COc1ccc(C(=O)OCC(=O)NCc2cccs2)cc1 |  | inconclusive: 17.8 µM [inhibitor, single point] |
| N#Cc1c(-c2ccc(Cl)cc2)c(C#N)c(=O)n(N)c1N | inactive: 4.12% |  |
| COc1ccc(Cl)cc1NC(=O)C1CCCN(c2ncnc3onc(C)c23)C1 (stereo not given) | inactive: -15.9% [at 46.1 µM] |  |
| CC(C)c1ccc(-n2c(O)c(/C=N/NC(=O)c3ccncc3)c(=O)[nH]c2=O)cc1 | inactive: -17.8% |  |
| CCC(Oc1ccccc1F)C(=O)N1CCC(c2nc3ccccc3s2)CC1 (stereo not given) | inactive: -3.59% [at 46.1 µM] |  |
| CSc1nc(-c2ccco2)nn1C(=O)c1ccco1 | inactive: 2.72% |  |
| CCOc1cc(/C=C/C(=O)c2ccc(OC)c(CN3CCOCC3)c2)cc(Br)c1O |  | inconclusive: 31.6 µM [inhibitor, single point] |
| CCOc1ccc(NC(=O)C2CCCN(c3ccc(Sc4ccc(C)cc4)nn3)C2)cc1 (stereo not given) |  | inconclusive: 2.24 µM [inhibitor, full curve, poor fit] |
| Cc1ccc(C(CC(=O)c2ccco2)SCCO)cc1 (stereo not given) |  | inconclusive: 39.8 µM [inhibitor, partial curve, poor fit] |
| Cc1ccc(SCCOCCN2CCOCC2)cc1 | inactive: 22.7% |  |
| CC(=O)c1ccc(NC(=O)CC(C)S(=O)(=O)c2ccc3c(c2)CCN3C(C)=O)cc1 (stereo not given) |  | inconclusive: 20 µM [activator, single point] |
| Cc1c(C)n(C)c2ccc(C(=O)NCCCN3CCN(C)CC3)cc12 |  | inconclusive: 15.8 µM [activator, single point] |
| O=C(c1ccccc1)N1CCN(C(=O)c2ccc3c(c2)OCO3)CC1 | inactive: -16.5% |  |
| Cc1ccccc1C(=O)NC1(C(F)(F)F)N=C(c2ccccc2)N(C2CCCCC2)C1=O (stereo not given) | inactive: 0.86% [at 46.1 µM] |  |
| O=C(Cn1cccc1C(=O)c1ccccc1)NCc1ccc2c(c1)OCO2 |  | inconclusive: 20 µM [activator, single point] |
| CCS(=O)(=O)N1N=C(c2cccc(NS(C)(=O)=O)c2)CC1c1ccccc1 (stereo not given) |  | inconclusive: 14.1 µM [inhibitor, partial curve, poor fit] |
| Cc1c(C#N)c(SCC(N)=O)nc2c1CCCC2 | inactive: 3.49% |  |
| CCOC(=O)CNC(=O)Nc1cc(C(=O)NCc2ccccc2OC)ccc1N1CCCC1 | inactive: 12.4% [at 46.1 µM] |  |
| Cc1cccc(Nc2nc3c(S(=O)(=O)c4ccccc4)nnn3c3ccccc23)c1 | inactive: -1.02% |  |

| Compound | activity change, negative = inhibition | Potency |
| --- | --- | --- |
| CCOc1ccc(NC(=O)CSc2ccc(-c3sc(-c4ccccc4)nc3C)nn2)cc1 |  | inconclusive: 2.82 µM [inhibitor, full curve, poor fit] |
| CCOC(=O)/C=C1\Nc2ccccc2OC1=O | inactive: 1.34% |  |
| Cc1c(O)cc2n(c1=O)-c1ccccc1C2(C)C |  | inconclusive: 0.562 µM [activator, full curve, poor fit] |
| C/C(=N/Oc1nc(C)cc(C)n1)c1ccc(F)cc1 |  | inconclusive: 31.6 µM [activator, single point] |
| C=CCn1c(-c2cc3c(s2)CCC(CC)C3)n[nH]c1=S (stereo not given) |  | inconclusive: 8.91 µM [activator, partial curve] |
| Cc1ncc(CN2CCCC(C(=O)c3sccc3C)C2)s1 (stereo not given) | inactive: 2.43% [at 46.1 µM] |  |
| S=C(c1c[nH]c2ccccc12)N1CCOCC1 |  | inconclusive: 1 µM [inhibitor, single point] |
| CCOC(=O)C(NC(=O)c1ccccc1Cl)(Nc1ccc(C)c(C)c1)C(F)(F)F (stereo not given) |  | inconclusive: 22.4 µM [inhibitor, single point] |
| COc1ccc(/C=C2\N=C3CCCCCN3C2=O)cc1 |  | inconclusive: 6.31 µM [inhibitor, single point] |
| CCC(C)(C)c1ccc(OCC(=O)N(C)C)c(C(C)(C)CC)c1 |  | inconclusive: 10 µM [inhibitor, partial curve, poor fit] |
| CCn1c(/N=C/c2ccccc2NS(=O)(=O)c2ccc(C)cc2)nc2ccccc21 |  | active: 11.2 µM |
| O=C(NC(Cc1c[nH]c2ccccc12)C(=O)Nc1ccc(F)cc1)c1cccs1 (stereo not given) |  | active: 1.41 µM |
| CC(=O)c1ccc2noc(-c3ccc(F)cc3)c2c1 | inactive: 10.2% |  |
| Cc1cccc(NC(=O)c2cc3c(=O)n4cccc(C)c4nc3s2)c1C | inactive: -8.14% [at 46.1 µM] |  |
| Cc1ccc(CNC(=O)Nc2ccc(F)cc2F)n1C |  | inconclusive: 3.55 µM [activator, partial curve, poor fit] |
| N=c1n(CC(=O)c2ccc([N+](=O)[O-])cc2)c2ccccc2n1Cc1ccccc1 |  | inconclusive: 25.1 µM [inhibitor, single point] |
| O=C(NC12CC3CC(CC(C3)C1)C2)c1ccc(S(=O)(=O)N2CCOCC2)cc1 | inactive: -22.7% |  |
| Cc1cccc(C(=O)OCC(=O)N2CCN(C(=O)c3ccco3)CC2)c1O |  | inconclusive: 12.6 µM [activator, single point] |
| COc1ccc(S(=O)(=O)N2CCOCC2)cc1NC(=O)C1COc2ccccc2O1 (stereo not given) |  | inconclusive: 35.5 µM [inhibitor, single point] |
| Cc1ccc(-c2nc(C#N)c(NCCc3ccccn3)o2)cc1 |  | inconclusive: 1 µM [activator, partial curve] |
| O=[N+]([O-])c1ccc(N2CCCCC2)cc1N1CCOCC1 |  | inconclusive: 35.5 µM [inhibitor, single point] |
| O=C(Nc1cccc2ccccc12)c1nn(C23CC4CC(CC(C4)C2)C3)cc1Br |  | inconclusive: 11.2 µM [inhibitor, partial curve, poor fit] |
| CCn1c2ccccc2c2c3ncc4cccn4c3ccc21 | inactive: 1.67% [at 46.1 µM] |  |
| CN1CCN(c2ccccc2NC(=O)c2ccc(OCc3ccccc3)cc2)CC1 |  | inconclusive: 35.5 µM [inhibitor, single point] |
| O=C(O)CCn1c2ccccc2c2nc3ccccc3nc21 | inactive: 29.8% [at 46.1 µM] |  |

| Compound | activity change, negative = inhibition | Potency |
| --- | --- | --- |
| CCCCCCCCC(=O)NC(NC(=S)N1CCOCC1)C(Cl)(Cl)Cl (stereo not given) |  | inconclusive: 18.3 µM [inhibitor, single point] |
| O/N=C/c1cn(-c2ccc(Cl)cc2)nn1 |  | inconclusive: 7.08 µM [activator, partial curve] |
| O=C(Cn1cnc([N+](=O)[O-])n1)N/N=C/c1cc(Cl)ccc1O |  | inconclusive: 12.6 µM [inhibitor, partial curve, poor fit] |
| CCOc1ccc(N2C(=O)CCC2=O)cc1 | inactive: 3.49% |  |
| COc1ccccc1N(Cc1ccccc1)S(=O)(=O)c1cccc(C(=O)NC2CC(C)(C)NC(C)(C)C2)c1 |  | inconclusive: 35.5 µM [inhibitor, single point] |
| CCN1CCN(C(=O)c2cnn(-c3cccc(Cl)c3)c2C2CCN(C(=O)OC(C)(C)C)CC2)CC1 |  | active: 7.08 µM |
| C/C(=N\Nc1nccnc1Cl)c1ccc(O)c(C)c1 |  | inconclusive: 35.5 µM [inhibitor, single point] |
| CCOC(=O)c1c(C)[nH]c(C)c1C(=O)COC(=O)c1cccs1 | inactive: -2.36% |  |
| CCN(CC)S(=O)(=O)c1cccc(C(=O)Nc2ccc(C#N)cc2)c1 |  | inconclusive: 29.1 µM [inhibitor, single point] |
| Cc1nc(NC(=O)C2CCCCC2C(=O)O)sc1C (stereo not given) |  | inconclusive: 35.5 µM [inhibitor, single point] |
| COc1ccc(Cc2nc(-c3ccccc3)no2)cc1 | inactive: 9.48% |  |
| COc1ccc(C(=O)CCNc2ccc(F)cc2)cc1 | inactive: 8.85% |  |
| COc1ccccc1OCC(O)Cn1c(=N)n(CCN2CCCCC2)c2ccccc21 (stereo not given) |  | inconclusive: 20.6 µM [inhibitor, single point] |
| COc1ccc(/C=N/Nc2ncc(C(F)(F)F)cc2Cl)cc1OC | inactive: 3.24% |  |
| Oc1ccccc1/C=N/Nc1cc(N2CCCC2)nc(N2CCCC2)n1 |  | inconclusive: 6.31 µM [inhibitor, full curve, poor fit] |
| COc1ccc2oc(C(=O)OCC(=O)Nc3ccccc3OC)c(C)c2c1 |  | inconclusive: 15.8 µM [inhibitor, partial curve, poor fit] |
| COc1ccc2c(c1)CCc1c(C(=O)Nc3c(C)nn(Cc4ccccc4C)c3C)noc1-2 |  | inconclusive: 12.6 µM [inhibitor, partial curve, poor fit] |
| O=C1CC(c2ccc(F)cc2)Cc2nc(NCC3CCCO3)ncc21 (stereo not given) |  | inconclusive: 7.3 µM [inhibitor, partial curve, poor fit] |
| CCOc1ncnc2c1[nH]c1ccccc12 | inactive: -4.38% |  |
| CCc1ccc(NC(=O)c2ccc(F)c(S(=O)(=O)NCc3ccc(Cl)c(Cl)c3)c2)cc1 |  | inconclusive: 1.12 µM [inhibitor, partial curve, poor fit] |
| Cc1ccccc1OCC(=O)Nc1cccc(N(C)S(C)(=O)=O)c1 | inactive: 24.1% |  |
| Cc1c(Nc2nc3ccccc3n3c(C)nnc23)cccc1C(=O)O | inactive: -7.07% [at 46.1 µM] |  |
| CCOc1ccccc1CNC(=O)c1ccc2c(c1)nc1n2CCCCC1 |  | active: 5.01 µM |
| CCOc1ccc2nc(NC(=S)NCc3ccccc3)sc2c1 |  | inconclusive: 1.83 µM [inhibitor, partial curve] |
| Cc1ccc(Cl)cc1-n1ncc2c(NCCCc3ccccc3)ncnc21 |  | inconclusive: 3.98 µM [inhibitor, partial curve, poor fit] |
